This passage reports binding results from publication doi:10.1101/2021.05.05.442785 (bioRxiv, 2021).

No constants are given. Whether binding was seen depends on the method and setting. Binding seen in cells or lysates may run through a third protein. Here binding means that the protein was enriched with, or labelled near, the bait; the list need not be complete. Sequences can lack the tags named with a protein.

For the test, the target named is T1, S-adenosylmethionine lyase (SAMase) of bacteriophage T3, C-terminal His-tagged (bacteriophage T3) (UniProt P07693).
T1 sequence: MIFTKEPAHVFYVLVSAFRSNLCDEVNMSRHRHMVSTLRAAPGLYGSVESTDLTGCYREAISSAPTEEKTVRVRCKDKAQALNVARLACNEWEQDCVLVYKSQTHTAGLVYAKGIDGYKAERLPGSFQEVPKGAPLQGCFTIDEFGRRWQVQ
As to the kind of experiment: affinity purification with mass spectrometry.

B1: E. coli methionine S-adenosyltransferase (MAT), endogenous (enzyme, UniProt P0A817 1-384)
chain: MAKHLFTSESVSEGHPDKIADQISDAVLDAILEQDPKARVACETYVKTGMVLVGGEITTSAWVDIEEITRNTVREIGYVHSDMGFDANSCAVLSAIGKQSPDINQGVDRADPLEQGAGDQGLMFGYATNETDVLMPAPITYAHRLVQRQAEVRKNGTLPWLRPDAKSQVTFQYDDGKIVGIDAVVLSTQHSEEIDQKSLQEAVMEEIIKPILPAEWLTSATKFFINPTGRFVIGGPMGDCGLTGRKIIVDTYGGMARHGGGAFSGKDPSKVDRSAAYAARYVAKNIVAAGLADRCEIQVSYAIGVAEPTSIMVETFGTEKVPSEQLTLLVREFFDLRPYGLIQMLDLLHPIYKETAAYGHFGREHFPWEKTDKAQLLRDAAGLK
For the molecule B1, the binding result was “binds”.
